# According to the supplement of paper PMC8728848:
# The other results are listed elsewhere or left out.
# B1: Epa21 (Candida glabrata) (protein)
# chain: MGSSHHHHHHSSGLVPRGSHMASTPNIESHPQGCSPVDTSGIKPGLKMDLYRFPITPPGTGCWSWDWLTVTPDFPRSGYWKWPKIAEVDGVVGPLHLDSGHPTCDPLTSVLPHGFNYLQSITTTNFTMVLHGYFVPKQSGKYTFEFKADDALLLNLGAGNAFSCCDYNNSQYNQGEYLAYAIWSKNNQTATLYLEKGIYYPIRVFYHNRCCGAYMDVVYYFNDSPIPNRDFSGLLFSIPDSDSCDANI
# Legend:
# Test in all cases: glycan array binding signal (z-score within array); higher = stronger binding
# Conditions in all cases: glycan notation: IUPAC condensed, linker removed
# [1] = biological target: GalNAc(a1-3)GalNAc(b1-3)Gal(a1-4)Gal(b1-4)GlcNAc
# Outline: (§1)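 The binding signal is a Z-score computed within each array and averaged over linkers. Arrays of the same protein sequence at different concentrations or buffers were also averaged together. Data originate from 3228 arrays in the Consortium for Functional Glycomics database, kept only where the protein sequence was available.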
# GalNAc(b1-3)Gal = biological target: GalNAc(b1-3)Gal
# Outline: as §1
# [2] = biological target: GalNAc(b1-3)Gal(a1-4)Gal(b1-4)GlcNAc
# Outline: as §1
# [3] = biological target: GalNAc(b1-3)Gal(a1-4)Gal(b1-4)GlcNAc(b1-3)Gal(b1-4)Glc
# Outline: as §1
# [4] = biological target: GalNAc(b1-3)Gal(a1-6)Gal(b1-4)Glc
# Outline: as §1
# GalNAc(b1-3)GalNAc = biological target: GalNAc(b1-3)GalNAc
# Outline: as §1
# GalNAc(b1-3)GlcNAc = biological target: GalNAc(b1-3)GlcNAc
# Outline: as §1
# GalNAc(b1-4)Gal(b1-4)Glc = biological target: GalNAc(b1-4)Gal(b1-4)Glc
# Outline: as §1
# GalNAc(b1-4)GlcNAc = biological target: GalNAc(b1-4)GlcNAc
# Outline: as §1
# [5] = biological target: GalNAc(b1-4)GlcNAc(b1-2)Man
# Outline: as §1
# [6] = biological target: GalNAc(b1-4)GlcNAc(b1-2)Man(a1-3)[GalNAc(b1-4)GlcNAc(b1-2)Man(a1-6)]Man(b1-4)GlcNAc(b1-4)GlcNAc
# Outline: as §1
# [7] = biological target: GalNAc(b1-4)GlcNAc(b1-3)GalNAc(b1-4)GlcNAc
# Outline: as §1
# GalNAc(b1-4)GlcNAc6S = biological target: GalNAc(b1-4)GlcNAc6S
# Outline: as §1
# GalNAc(b1-6)GalNAc = biological target: GalNAc(b1-6)GalNAc
# Outline: as §1
# GalNAc3S(b1-4)GlcNAc = biological target: GalNAc3S(b1-4)GlcNAc
# Outline: as §1
# GalNAc3S(b1-4)GlcNAc3S = biological target: GalNAc3S(b1-4)GlcNAc3S
# Outline: as §1
# [8] = biological target: GalNAc3S(b1-4)[Fuc(a1-3)]GlcNAc
# Outline: as §1
# GalNAc4S6S(b1-4)GlcNAc = biological target: GalNAc4S6S(b1-4)GlcNAc
# Outline: as §1
# GalNAc6S(b1-4)GlcNAc = biological target: GalNAc6S(b1-4)GlcNAc
# Outline: as §1
# Glc(a1-4)Glc = biological target: Glc(a1-4)Glc
# Outline: as §1
# [9] = biological target: Glc(a1-4)Glc(a1-4)Glc(a1-4)Glc
# Outline: as §1
# Glc(a1-6)Glc(a1-6)Glc = biological target: Glc(a1-6)Glc(a1-6)Glc
# Outline: as §1
# [10] = biological target: Glc(a1-6)Glc(a1-6)Glc(a1-6)Glc
# Outline: as §1
# Glc(b1-4)Glc = biological target: Glc(b1-4)Glc
# Outline: as §1
# Glc(b1-6)Glc = biological target: Glc(b1-6)Glc
# Outline: as §1
# GlcA(b1-3)Gal = biological target: GlcA(b1-3)Gal
# Outline: as §1
# GlcA(b1-3)GlcNAc = biological target: GlcA(b1-3)GlcNAc
# Outline: as §1
# GlcA(b1-6)Gal = biological target: GlcA(b1-6)Gal
# Outline: as §1
# [11] = biological target: GlcA3S(b1-3)Gal(b1-4)GlcNAc(b1-2)Man
# Outline: as §1
# [12] = biological target: GlcA3S(b1-3)Gal(b1-4)GlcNAc(b1-3)Gal(b1-4)Glc
# Outline: as §1
# [13] = biological target: GlcNAc(a1-3)Gal(b1-4)GlcNAc
# Outline: as §1
# [14] = biological target: GlcNAc(a1-4)Gal(b1-3)GlcNAc
# Outline: as §1
# [15] = biological target: GlcNAc(a1-4)Gal(b1-4)GalNAc
# Outline: as §1
# [16] = biological target: GlcNAc(a1-4)Gal(b1-4)GlcNAc
# Outline: as §1
# [17] = biological target: GlcNAc(a1-4)Gal(b1-4)GlcNAc(b1-3)Gal(b1-4)Glc
# Outline: as §1
# [18] = biological target: GlcNAc(a1-4)Gal(b1-4)GlcNAc(b1-3)Gal(b1-4)GlcNAc
# Outline: as §1
# [19] = biological target: GlcNAc(a1-4)Gal(b1-4)GlcNAc(b1-3)Gal(b1-4)GlcNAc(b1-3)Gal(b1-4)GlcNAc
# Outline: as §1
# [20] = biological target: GlcNAc(a1-4)Gal(b1-4)GlcNAc(b1-3)Gal(b1-4)[Fuc(a1-3)]GlcNAc(b1-3)Gal(b1-4)[Fuc(a1-3)]GlcNAc
# Outline: as §1
binder,measurement,setting,value
B1,glycan array binding signal (z-score),[1],-0.298
same,glycan array binding signal (z-score),GalNAc(b1-3)Gal,-0.045
same,glycan array binding signal (z-score),[2],-0.453
same,glycan array binding signal (z-score),[3],-0.035
same,glycan array binding signal (z-score),[4],-0.582
same,glycan array binding signal (z-score),GalNAc(b1-3)GalNAc,-0.617
same,glycan array binding signal (z-score),GalNAc(b1-3)GlcNAc,-0.422
same,glycan array binding signal (z-score),GalNAc(b1-4)Gal(b1-4)Glc,-0.222
same,glycan array binding signal (z-score),GalNAc(b1-4)GlcNAc,0.066
same,glycan array binding signal (z-score),[5],-0.584
same,glycan array binding signal (z-score),[6],0.288
same,glycan array binding signal (z-score),[7],0.282
same,glycan array binding signal (z-score),GalNAc(b1-4)GlcNAc6S,0.9
same,glycan array binding signal (z-score),GalNAc(b1-6)GalNAc,-0.563
same,glycan array binding signal (z-score),GalNAc3S(b1-4)GlcNAc,0.345
same,glycan array binding signal (z-score),GalNAc3S(b1-4)GlcNAc3S,-0.059
same,glycan array binding signal (z-score),[8],-0.597
same,glycan array binding signal (z-score),GalNAc4S6S(b1-4)GlcNAc,0.402
same,glycan array binding signal (z-score),GalNAc6S(b1-4)GlcNAc,-0.25
same,glycan array binding signal (z-score),Glc(a1-4)Glc,-0.414
same,glycan array binding signal (z-score),[9],-0.046
same,glycan array binding signal (z-score),Glc(a1-6)Glc(a1-6)Glc,-0.35
same,glycan array binding signal (z-score),[10],0.578
same,glycan array binding signal (z-score),Glc(b1-4)Glc,-0.662
same,glycan array binding signal (z-score),Glc(b1-6)Glc,-0.72
same,glycan array binding signal (z-score),GlcA(b1-3)Gal,-0.233
same,glycan array binding signal (z-score),GlcA(b1-3)GlcNAc,0.14
same,glycan array binding signal (z-score),GlcA(b1-6)Gal,0.808
same,glycan array binding signal (z-score),[11],-0.081
same,glycan array binding signal (z-score),[12],-0.444
same,glycan array binding signal (z-score),[13],-0.82
same,glycan array binding signal (z-score),[14],-0.942
same,glycan array binding signal (z-score),[15],-0.211
same,glycan array binding signal (z-score),[16],-0.35
same,glycan array binding signal (z-score),[17],-0.384
same,glycan array binding signal (z-score),[18],-0.403
same,glycan array binding signal (z-score),[19],-0.911
same,glycan array binding signal (z-score),[20],0.304

# Reprinted at random: two entries already listed, in no set order.
binder,measurement,setting,value
B1,glycan array binding signal (z-score),GlcA(b1-3)GlcNAc,0.14
same,glycan array binding signal (z-score),Glc(b1-6)Glc,-0.72
